Drawing on publication PMC12561996, this text covers binding for one substance.

By UniProt entry, the sequences of proteins in these tests, tags left out.
UniProt Q9Y297: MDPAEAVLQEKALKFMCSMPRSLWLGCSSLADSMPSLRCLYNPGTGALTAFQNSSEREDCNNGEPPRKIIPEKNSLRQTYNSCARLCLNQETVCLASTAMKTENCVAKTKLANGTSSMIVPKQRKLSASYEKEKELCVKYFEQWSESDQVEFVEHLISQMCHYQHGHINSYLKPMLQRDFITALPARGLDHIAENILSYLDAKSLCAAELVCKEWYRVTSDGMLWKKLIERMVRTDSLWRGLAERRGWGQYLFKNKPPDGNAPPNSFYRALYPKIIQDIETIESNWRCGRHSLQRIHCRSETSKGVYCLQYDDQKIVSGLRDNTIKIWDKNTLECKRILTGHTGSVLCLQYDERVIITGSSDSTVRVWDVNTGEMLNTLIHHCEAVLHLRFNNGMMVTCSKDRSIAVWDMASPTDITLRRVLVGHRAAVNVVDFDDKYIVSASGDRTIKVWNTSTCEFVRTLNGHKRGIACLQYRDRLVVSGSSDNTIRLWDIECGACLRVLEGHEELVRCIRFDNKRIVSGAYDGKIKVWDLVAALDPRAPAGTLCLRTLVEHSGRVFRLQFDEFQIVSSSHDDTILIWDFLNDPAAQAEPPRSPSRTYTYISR

This experiment has as its target S-phase kinase-associated protein 1 (Skp1) (UniProt P63208). Nature of the experiment: co-IP; HEK293T cells co-transfected with the tagged proteins, with or without RPS4X; 24 h after transfection 40 uM MG132 for 16 h; lysates immunoprecipitated with a specific antibody, then immunoblot; which partner was precipitated is not given. For orientation: A western blot detects proteins with antibodies after separation by electrophoresis.

No constants are given. Whether binding was seen depends on the method and setting. Binding seen in cells or lysates may run through a third protein. Some binding calls cover weakened binding; strength is not graded here.

Regarding “human β-TrCP (from UniProt Q9Y297 1-605)”, the binding entry was “binds”.
